Data published in PubChem BioAssay AID624246 (National Center for Advancing Translational Sciences (NCATS), 2012).
The whole screen tested about 370,000 compounds, of which about 100 (0.027%) were called active. Inconclusive means that the source gave no clear call. Such entries were picked first, then a sample of the others. Calls come from the whole dose curve; as a rule, active = well fitted inhibition curve with a large enough effect in the polarisation, with a control signal flat; inconclusive = small, poorly fitted or top-dose-only effect, or effect the other way, or a change in a side signal; inactive = no such curve, though single readings can be large or run the other way; the % refers to the polarisation. A potency beside an inconclusive call is a rough fit, not a confirmed value. A note “side channel” means that the fit belongs to a control or component signal, not to the main read-out.

Amino acid sequences for entries named in this document (tags omitted).
UniProt P11308, whole entry, looked up: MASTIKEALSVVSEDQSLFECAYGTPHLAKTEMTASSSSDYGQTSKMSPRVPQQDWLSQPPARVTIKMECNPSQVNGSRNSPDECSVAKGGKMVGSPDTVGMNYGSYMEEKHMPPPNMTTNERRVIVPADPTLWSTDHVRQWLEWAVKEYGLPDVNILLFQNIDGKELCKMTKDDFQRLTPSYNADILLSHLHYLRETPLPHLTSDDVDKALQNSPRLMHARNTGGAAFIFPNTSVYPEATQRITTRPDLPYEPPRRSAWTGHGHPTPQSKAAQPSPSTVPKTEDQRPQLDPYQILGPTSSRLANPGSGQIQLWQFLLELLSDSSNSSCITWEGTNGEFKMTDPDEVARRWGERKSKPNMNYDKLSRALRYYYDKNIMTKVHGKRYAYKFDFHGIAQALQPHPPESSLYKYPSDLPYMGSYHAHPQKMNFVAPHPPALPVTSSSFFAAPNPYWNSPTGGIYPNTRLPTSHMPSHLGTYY

target: Transcriptional regulator ERG (Homo sapiens) (UniProt P11308); assay: qHTS for Small Molecule Inhibitors of the ERG Ets/DNA interaction; conditions: fluorescence polarization, His-ERG Ets domain / labelled DNA; FP activity, negative = inhibition: at 76.9 µM (top of the series); for FP activity, negative = inhibition: % of control where 0% means no effect
How it was run: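 His-tagged ERG Ets domain (1 uM in the protein solution; 300mM KCl, 50mM Tris-HCl, 1mM EDTA, 1mM DTT, pH 7.5) received compound, then a probe mix of 5 nM fluorescein-DNA and 100nM Texas-615-DNA. Fluorescence polarization was read for both dyes.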
Potency is the fitted concentration of half-maximal effect.

SMILES	FP activity, negative = inhibition	Potency
COc1cc2cc(C(=O)N3CCOCC3)cc(-c3ccc(C)cc3)c2cc1OC	inactive: 10.3%	
COC(=O)c1cc(NC(=O)c2cccc(C(F)(F)F)c2)c(=O)oc1C	inactive: -6.82% [at 15.4 µM]	
O=C(c1ccco1)N1CCN(C(=O)c2ccc(-c3ccccc3Cl)o2)CC1		inconclusive: 44.7 µM [inhibitor, single point]
Cc1c(C(=O)N2CCCCC2)c(S(=O)(=O)N2CCN(c3ccc(F)cc3)CC2)c(C)n1C		inconclusive: 50.1 µM [inhibitor, single point]
CCOc1cccc2sc(NC(=O)c3ccc(S(=O)(=O)N4CCCCC4)cc3)nc12	inactive: -4.69%	
COC(=O)c1c(C)[nH]c(C=O)c1-c1ccccc1	inactive: -19%	
COc1ccc(N2C(=O)NC(NS(=O)(=O)c3ccc(NC(C)=O)cc3)(C(F)(F)F)C2=O)cc1 (configuration not stated)		inactive
Cc1onc(C(=O)NCc2ccccn2)c1[N+](=O)[O-]		inconclusive: 50.1 µM [inhibitor, single point]
COc1ccc(/C=C\C(=O)NCc2ccc3c(c2)cc(C)n3C)cc1OC		inconclusive: 31.6 µM [inhibitor, partial curve, poor fit]
Cc1oc(-c2ccccc2Cl)nc1CS(=O)CC(=O)N1CCN(c2cccc(C(F)(F)F)c2)CC1 (configuration not stated)	inactive: 3.18%	
O=C(NCc1ccncc1)c1nc(-c2cccs2)no1	inactive: 6.49%	
CCN=C1S/C(=C\c2ccc(O)c(OCC)c2)C(=O)N1CC	inactive: 2.51%	
O=C(COC(=O)c1ccc(Cl)cc1[N+](=O)[O-])NCc1ccco1		inconclusive: 22.4 µM [inhibitor, partial curve, poor fit]
S=C(NCc1ccco1)N1CCN(c2ccccn2)CC1		inconclusive: 11.2 µM [inhibitor, partial curve, poor fit]
CCc1ccc2oc(C(=O)NCC(c3ccc(Cl)cc3)N3CCOCC3)c(C)c2c1 (configuration not stated)		inconclusive: 79.4 µM [inhibitor, single point]
CCOC(=O)c1c(NC(=S)Nc2cccnc2)sc(C)c1C	inactive: -3.68%	
Cc1ccc(C)c(NC(=O)Cn2cnc3c(oc4ccccc43)c2=O)c1		inconclusive: 8.91 µM [inhibitor, partial curve, poor fit]
COc1ccc(CCNC(=O)Cn2cc(C(F)(F)F)cc(Cl)c2=O)cc1		inconclusive: 3.16 µM [inhibitor, partial curve, poor fit]
CCCN(Cc1ccccc1)C(=S)Nc1ccc(OCC)cc1	inactive: 6.29%	
COc1cccc(CN2CCC(CO)(CC3CCCCO3)CC2)c1 (configuration not stated)	inactive: 0.552%	
Cc1ccc(Nc2nnc(-c3ccc(N4CCOCC4)c([N+](=O)[O-])c3)c3ccccc23)cc1		inconclusive: 10 µM [quencher, side channel, full curve, poor fit]
Cc1ccc2nc(-c3ccc(N4C(=N)SC5CS(=O)(=O)CC54)cc3)sc2c1 (configuration not stated)	inactive: -5.33%	
CN(C)c1ccc2c(c1)C(=NO)c1ccccc1-2		inconclusive: 56.2 µM [inhibitor, single point]

SMILES	FP activity, negative = inhibition	Potency
O=S(=O)(NC1CCCCC1N1CCC(O)CC1)c1ccccc1 (configuration not stated)		inconclusive: 28.2 µM [inhibitor, single point]
CC(C)c1ccc(CNc2nc(-c3ccco3)nn2S(=O)(=O)c2ccc3ccccc3c2)cc1	inactive: 0.327%	
Cc1nn(C)c(C(=O)N/N=C/c2cccc(Oc3ccccc3)c2)c1Br		inconclusive: 44.7 µM [inhibitor, partial curve, poor fit]
CCCN(C(=O)CSc1cc(-c2ccccc2)c2ccc(OC)cc2n1)C1CCS(=O)(=O)C1 (configuration not stated)		inconclusive: 56.2 µM [quencher, side channel, partial curve, poor fit]
CCCSc1nc(C)cc(C)c1S(=O)(=O)c1ccccc1C		inconclusive: 28.2 µM [quencher, side channel, partial curve, poor fit]
Cc1ccc(C2=NN(CC(=O)NCCN(C)C)C(=O)CC2)cc1		inconclusive: 31.6 µM [inhibitor, partial curve]
CC(=O)Nc1ncc(Cc2cccc(Cl)c2)s1		inconclusive: 2.51 µM [inhibitor, partial curve, poor fit]
CN1CCCC(n2nc(Cc3ccc(Cl)cc3)c3ccccc3c2=O)CC1 (configuration not stated)		inconclusive: 28.2 µM [inhibitor, single point]
Cc1ccc(/C=C/C(=O)Nc2ccc(S(=O)(=O)Nc3onc(C)c3C)cc2)cc1		active: 28.2 µM
CCN(CC)S(=O)(=O)c1ccc(N2CCCCC2)c(NC(=O)C2CCN(C(=O)c3ccc(F)cc3)CC2)c1		inconclusive: 28.2 µM [inhibitor, partial curve, poor fit]
O=C(CSc1nc2ccccc2o1)Nc1nc2c(s1)CCCC2		inconclusive: 50.1 µM [inhibitor, single point]
O=C(c1ccc(N2CCCCC2)c([N+](=O)[O-])c1)N(Cc1ccccc1)c1ccccn1	inactive: -3.61%	
COc1ccc(/C=C2\C(=O)OCc3cc(OC)c(OC)cc32)cc1OC	inactive: -0.261%	
O=C(c1cccnc1)N1CCc2ccccc2C1	inactive: -0.254%	
COc1cc(/C=N/NC(=O)c2ccncc2)ccc1OC(=O)c1ccc([N+](=O)[O-])cc1		inconclusive: 31.6 µM [inhibitor, partial curve, poor fit]
CCOC(=O)/C=C(/C)N1N=C(c2ccc(OC)cc2)CC1c1cccc([N+](=O)[O-])c1 (configuration not stated)		inconclusive: 11.2 µM [quencher, side channel, single point]
O=[N+]([O-])c1ccc(S(=O)(=O)N/N=C/c2ccsc2)cc1		inconclusive: 2.51 µM [inhibitor, partial curve, poor fit]
Cc1c(OC(C)C(=O)NCc2ccccn2)ccc2c3c(c(=O)oc12)CCCC3 (configuration not stated)		inconclusive: 50.1 µM [inhibitor, single point]
CCOC(=O)C1=NNC(C(=O)c2ccc(C)cc2)C1c1ccc(C)cc1 (configuration not stated)		inconclusive: 6.31 µM [quencher, side channel, single point]
COc1ccc(C(C)(C)C)cc1NC(=O)COC(=O)c1cnc(C)cn1	inactive: 3.34%	
COc1ccc(NC(=O)c2sc3nc(C)cc(C)c3c2N)cc1		inconclusive: 11.2 µM [inhibitor, partial curve]
Cc1ccc(NC(=O)c2c(-c3ccccc3)noc2C)nc1	inactive: -5.84%	
COCCCNC(=O)CSc1c2c(nc3ccc(Cl)cc13)CCCC2		inconclusive: 50.1 µM [quencher, side channel, partial curve, poor fit]

SMILES	FP activity, negative = inhibition	Potency
C[C@H](CO)N1C[C@H](C)[C@@H](CN(C)S(=O)(=O)c2ccccc2)Oc2ccc(NC(=O)Nc3ccc4c(c3)OCO4)cc2C1=O	inactive: -2.54%	
O=C(Cc1cccs1)N/N=C/C=C/c1ccco1		inconclusive: 11.2 µM [quencher, side channel, single point]
C/C(=N/NC(=O)CNC(=O)c1ccco1)c1ccc(Cl)cc1		inconclusive: 11.2 µM [inhibitor, single point]
Cn1c(Cl)cnc1C1CC(=O)c2cc(Cl)ccc2O1 (configuration not stated)		inconclusive: 11.2 µM [inhibitor, single point]
COc1cc(/C=N/NC(=O)c2ccc3ccccc3c2)ccc1Oc1ccc([N+](=O)[O-])cn1		inconclusive: 1 µM [quencher, side channel, full curve, poor fit]
CCCc1c(OCCCCc2nn[nH]n2)ccc(C(C)=O)c1O		inconclusive: 0.794 µM [inhibitor, full curve, poor fit]
CCCn1nc([N+](=O)[O-])c(C(C#N)c2nc3ccccc3o2)c(Cl)c1=O (configuration not stated)	inactive: 10.8%	
CCOc1cc(CNc2ccc(O)cc2)ccc1OCc1ccc(Cl)cc1		inconclusive: 20 µM [inhibitor, partial curve, poor fit]
COc1cccc(C(=O)c2sc3nc(-c4ccccc4)cc(C(F)(F)F)c3c2N)c1		inconclusive: 35.5 µM [fluorescent, side channel, single point]
CC(=O)c1cccc(NC(=S)NC(=O)c2ccc(Br)cc2)c1	inactive: -10.9%	
OCCN1CCN(CCCN2c3ccccc3Sc3ccc(Cl)cc32)CC1		inconclusive: 25.1 µM [inhibitor, partial curve]
OC[C@H]1OC(O)[C@@H](O)[C@@H](O)[C@@H]1O (some centres not stated)		inconclusive: 50.1 µM [inhibitor, single point]
OC(CNc1ncnc2sccc12)c1ccccc1 (configuration not stated)		inconclusive: 50.1 µM [inhibitor, single point]
CCc1ccc(S(=O)(=O)/N=C2\C=C(Nc3ccc(O)cc3)C(=O)c3ccccc32)cc1		inconclusive: 28.2 µM [inhibitor, single point]
CC(NC(=O)c1cc2cc([N+](=O)[O-])ccc2oc1=O)C1CCCO1 (configuration not stated)	inactive: 18.5%	
COc1ccc2oc(=O)c(C(=O)Nc3cccc(C)c3)cc2c1	inactive: 6.37%	
CCOC(=O)c1ccc(-c2ccc(/C=C(\C#N)C(=O)Nc3cccc(C)c3)o2)cc1		inconclusive: 100 µM [inhibitor, single point]
Cc1nc2ncnn2c(C)c1CCC(=O)NCc1ccc(Cl)cc1		inconclusive: 7.08 µM [quencher, side channel, single point]
Oc1ccc(/C=N/Nc2nc(-c3cccnc3)nc3ccccc23)c(O)c1		inconclusive: 44.7 µM [inhibitor, single point]
CCOC(=O)COc1ccccc1/C=N/O		inconclusive: 100 µM [inhibitor, single point]
Cc1ccc(C)c(N2CCN(S(=O)(=O)c3ccc4c(c3)CC(C)N4C(=O)C3CC3)CC2)c1 (configuration not stated)	inactive: -3.5%	

Some of the entries above in another layout.
SMILES | FP activity, negative = inhibition | Potency
O=C(CSc1nc2ccccc2o1)Nc1nc2c(s1)CCCC2 |  | inconclusive: 50.1 µM [inhibitor, single point]
O=C(c1ccc(N2CCCCC2)c([N+](=O)[O-])c1)N(Cc1ccccc1)c1ccccn1 | inactive: -3.61% | 
COc1ccc(/C=C2\C(=O)OCc3cc(OC)c(OC)cc32)cc1OC | inactive: -0.261% | 
